{
  "sequences": {"note": "Amino acid sequences for entries named in this document (tags omitted).", "UniProt O00425, whole entry": "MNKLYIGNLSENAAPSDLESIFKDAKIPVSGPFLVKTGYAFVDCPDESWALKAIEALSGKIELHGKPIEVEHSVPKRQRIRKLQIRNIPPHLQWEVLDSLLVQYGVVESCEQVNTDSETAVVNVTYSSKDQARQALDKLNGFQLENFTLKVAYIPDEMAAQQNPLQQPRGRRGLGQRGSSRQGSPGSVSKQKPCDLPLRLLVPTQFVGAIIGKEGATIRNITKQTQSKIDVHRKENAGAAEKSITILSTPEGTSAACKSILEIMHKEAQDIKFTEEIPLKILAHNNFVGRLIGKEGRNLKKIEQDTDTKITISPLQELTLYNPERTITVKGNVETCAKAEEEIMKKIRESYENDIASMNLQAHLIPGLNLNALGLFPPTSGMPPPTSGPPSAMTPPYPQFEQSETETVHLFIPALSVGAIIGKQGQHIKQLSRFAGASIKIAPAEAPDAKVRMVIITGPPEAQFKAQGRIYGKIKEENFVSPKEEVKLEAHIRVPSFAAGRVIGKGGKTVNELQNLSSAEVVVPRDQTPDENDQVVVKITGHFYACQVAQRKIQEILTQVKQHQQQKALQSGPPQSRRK"},
  "source": "paper PMC12808120",
  "target": "IGF2BP3 (endogenous, cell extract) (Homo sapiens) (UniProt O00425)",
  "assay": "pull-down, mass spectrometry",
  "conditions": "quantified on both RNAs, significantly enriched on FMR1-99CGG over 23CGG; 3' biotin; pull-down: lysate mixed 1:1 with 2x TENT (100 mM Tris pH 7.8, 2 mM EDTA, 500 mM NaCl, 0.1% Tween), 21 C; protein in an extract; label: biotin",
  "note": "Construct, isoform or probe ends are uncertain for at least one entry. At least one result comes from cells or an extract, where the contact may be indirect. A weaker result is weaker than the reference pair of the same experiment.",
  "data": [
    {"sequence": "CGGCGGCGGCGGCGGCGGCGGCGGCGGCGGCGGCGGCGGCGGCGGCGGCGGCGGCGGCGGCGGCGGCGG [23CGG]", "values": [
      {"measurement": "binding result", "result": "binds more weakly"}
    ]}
  ]
}
